Test results reported in the RepoRT retention time repository (doi:10.1016/j.chroma.2015.11.014).

Assay: RP, Agilent ZORBAX Eclipse Plus C18, 150 × 2.1 mm, 3.5 µm, 40 °C, 0.3 mL/min, estimated dead time 1.1 min; A: water + 0.1% formic acid; B: acetonitrile + 0.1% formic acid; gradient (min/%B) 0/2 1/2 2/20 16.5/98 22/98
Conditions: stereoisomer not certain

- LC retention time: 12.6 min
SMILES: O=C(c1ccccc1)c1ccccc1
